Some of the results follow.
Compound: Cc1cc(ccc1-c1ccccc1)C(=O)N1CCCN(CC1)C(=O)CCl [compound 10]
Experiment: probe-labelled cysteine peptide fold change vs DMSO (competition) (log2 fold change); higher = less target engagement (more negative = stronger competition)
Details: 10 µM; THP-1; incubation time: 4 h
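Note: competitive profiling in live THP-1 cells: cysteine peptides tagged with an iodoacetamide desthiobiotin (IA-DTB) probe, intensity after compound treatment relative to DMSO-treated cells.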

The chains behind the UniProt entries cited, without tags or fusion partners. Where a name states a change or a piece, a line headed by the entry shows the natural chain unless it says otherwise.
UniProt Q53R41: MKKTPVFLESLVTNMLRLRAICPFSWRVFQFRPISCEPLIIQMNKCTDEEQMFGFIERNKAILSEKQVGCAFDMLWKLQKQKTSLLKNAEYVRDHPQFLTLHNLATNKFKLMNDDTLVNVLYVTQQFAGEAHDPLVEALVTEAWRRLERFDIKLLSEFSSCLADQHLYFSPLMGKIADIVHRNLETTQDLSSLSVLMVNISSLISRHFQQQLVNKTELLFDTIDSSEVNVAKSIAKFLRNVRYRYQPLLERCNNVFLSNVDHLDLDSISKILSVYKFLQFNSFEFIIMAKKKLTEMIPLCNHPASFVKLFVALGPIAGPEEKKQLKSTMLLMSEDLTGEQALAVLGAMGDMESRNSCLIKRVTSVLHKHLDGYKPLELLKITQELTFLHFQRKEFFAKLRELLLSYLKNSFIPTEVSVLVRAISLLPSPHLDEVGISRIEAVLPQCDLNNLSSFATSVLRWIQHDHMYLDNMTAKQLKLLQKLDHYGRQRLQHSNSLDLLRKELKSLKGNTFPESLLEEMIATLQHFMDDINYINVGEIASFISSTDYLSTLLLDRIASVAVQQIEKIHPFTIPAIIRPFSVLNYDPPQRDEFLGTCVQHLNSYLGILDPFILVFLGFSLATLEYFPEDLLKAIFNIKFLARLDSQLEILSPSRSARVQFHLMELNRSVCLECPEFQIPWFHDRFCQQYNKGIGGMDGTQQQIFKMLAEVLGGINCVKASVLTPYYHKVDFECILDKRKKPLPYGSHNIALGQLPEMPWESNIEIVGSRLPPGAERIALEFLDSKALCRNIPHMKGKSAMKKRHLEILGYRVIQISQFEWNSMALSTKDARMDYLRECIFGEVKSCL
UniProt P49327, whole entry, looked up: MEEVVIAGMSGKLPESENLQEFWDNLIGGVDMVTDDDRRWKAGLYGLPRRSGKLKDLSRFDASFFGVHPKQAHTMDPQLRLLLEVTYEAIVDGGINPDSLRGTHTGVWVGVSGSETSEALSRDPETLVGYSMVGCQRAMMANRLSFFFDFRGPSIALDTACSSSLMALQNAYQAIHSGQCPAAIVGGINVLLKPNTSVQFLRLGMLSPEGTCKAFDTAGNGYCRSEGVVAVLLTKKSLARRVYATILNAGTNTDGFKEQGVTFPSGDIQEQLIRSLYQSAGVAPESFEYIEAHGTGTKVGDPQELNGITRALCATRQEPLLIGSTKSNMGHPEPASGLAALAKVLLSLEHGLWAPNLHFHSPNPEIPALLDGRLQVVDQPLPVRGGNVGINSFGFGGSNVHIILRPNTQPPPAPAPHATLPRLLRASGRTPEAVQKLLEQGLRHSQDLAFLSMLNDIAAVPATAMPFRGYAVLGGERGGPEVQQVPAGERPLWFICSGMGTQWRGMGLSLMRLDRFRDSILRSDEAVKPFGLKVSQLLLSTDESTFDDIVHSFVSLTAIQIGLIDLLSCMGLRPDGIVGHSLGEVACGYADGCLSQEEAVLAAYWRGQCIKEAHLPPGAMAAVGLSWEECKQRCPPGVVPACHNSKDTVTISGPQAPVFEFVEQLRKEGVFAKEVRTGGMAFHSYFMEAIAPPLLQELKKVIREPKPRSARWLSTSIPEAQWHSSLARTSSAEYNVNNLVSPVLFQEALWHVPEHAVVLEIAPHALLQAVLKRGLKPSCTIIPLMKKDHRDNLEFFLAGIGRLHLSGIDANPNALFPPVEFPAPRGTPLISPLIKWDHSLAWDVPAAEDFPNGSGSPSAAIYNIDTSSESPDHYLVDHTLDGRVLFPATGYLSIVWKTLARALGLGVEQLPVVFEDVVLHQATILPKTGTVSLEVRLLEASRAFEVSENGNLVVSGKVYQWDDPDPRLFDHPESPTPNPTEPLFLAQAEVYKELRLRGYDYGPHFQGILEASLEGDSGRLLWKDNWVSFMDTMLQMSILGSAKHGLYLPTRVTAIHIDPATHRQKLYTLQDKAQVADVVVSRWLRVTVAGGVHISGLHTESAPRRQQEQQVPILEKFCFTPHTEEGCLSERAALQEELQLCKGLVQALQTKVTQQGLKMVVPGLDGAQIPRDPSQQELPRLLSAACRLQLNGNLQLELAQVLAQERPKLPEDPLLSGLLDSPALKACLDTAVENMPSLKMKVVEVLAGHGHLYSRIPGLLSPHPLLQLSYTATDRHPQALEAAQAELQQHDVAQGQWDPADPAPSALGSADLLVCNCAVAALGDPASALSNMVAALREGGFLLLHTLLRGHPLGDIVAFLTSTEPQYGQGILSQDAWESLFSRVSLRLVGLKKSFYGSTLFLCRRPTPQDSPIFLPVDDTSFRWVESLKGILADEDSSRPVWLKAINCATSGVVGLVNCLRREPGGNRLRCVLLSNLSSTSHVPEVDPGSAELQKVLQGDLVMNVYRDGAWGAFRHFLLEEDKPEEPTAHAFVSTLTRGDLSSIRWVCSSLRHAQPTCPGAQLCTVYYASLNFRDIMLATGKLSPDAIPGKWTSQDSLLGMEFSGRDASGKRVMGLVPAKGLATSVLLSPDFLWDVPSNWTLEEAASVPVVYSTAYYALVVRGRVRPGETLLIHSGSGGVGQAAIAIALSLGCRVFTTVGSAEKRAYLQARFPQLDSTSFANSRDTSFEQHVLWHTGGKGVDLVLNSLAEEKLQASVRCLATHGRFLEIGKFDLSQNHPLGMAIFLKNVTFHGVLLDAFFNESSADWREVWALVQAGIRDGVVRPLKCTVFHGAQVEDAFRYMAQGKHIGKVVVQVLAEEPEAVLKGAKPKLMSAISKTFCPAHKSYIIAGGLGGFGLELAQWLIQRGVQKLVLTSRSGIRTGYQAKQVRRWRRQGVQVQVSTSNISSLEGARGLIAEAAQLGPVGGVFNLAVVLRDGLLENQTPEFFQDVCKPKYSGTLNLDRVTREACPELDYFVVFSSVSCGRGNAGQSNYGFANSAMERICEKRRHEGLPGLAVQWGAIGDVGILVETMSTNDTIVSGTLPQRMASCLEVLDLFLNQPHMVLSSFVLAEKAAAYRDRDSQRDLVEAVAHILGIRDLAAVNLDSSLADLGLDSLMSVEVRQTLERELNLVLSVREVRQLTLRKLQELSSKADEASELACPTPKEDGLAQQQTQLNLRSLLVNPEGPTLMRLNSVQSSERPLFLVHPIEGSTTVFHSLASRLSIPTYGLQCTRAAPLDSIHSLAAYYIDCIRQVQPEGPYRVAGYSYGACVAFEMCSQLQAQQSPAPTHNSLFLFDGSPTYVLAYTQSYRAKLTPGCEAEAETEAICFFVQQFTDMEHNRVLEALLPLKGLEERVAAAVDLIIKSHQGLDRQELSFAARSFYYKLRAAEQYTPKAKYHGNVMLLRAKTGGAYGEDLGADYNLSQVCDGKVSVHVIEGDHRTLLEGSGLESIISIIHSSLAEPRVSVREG
UniProt Q6ZRV2: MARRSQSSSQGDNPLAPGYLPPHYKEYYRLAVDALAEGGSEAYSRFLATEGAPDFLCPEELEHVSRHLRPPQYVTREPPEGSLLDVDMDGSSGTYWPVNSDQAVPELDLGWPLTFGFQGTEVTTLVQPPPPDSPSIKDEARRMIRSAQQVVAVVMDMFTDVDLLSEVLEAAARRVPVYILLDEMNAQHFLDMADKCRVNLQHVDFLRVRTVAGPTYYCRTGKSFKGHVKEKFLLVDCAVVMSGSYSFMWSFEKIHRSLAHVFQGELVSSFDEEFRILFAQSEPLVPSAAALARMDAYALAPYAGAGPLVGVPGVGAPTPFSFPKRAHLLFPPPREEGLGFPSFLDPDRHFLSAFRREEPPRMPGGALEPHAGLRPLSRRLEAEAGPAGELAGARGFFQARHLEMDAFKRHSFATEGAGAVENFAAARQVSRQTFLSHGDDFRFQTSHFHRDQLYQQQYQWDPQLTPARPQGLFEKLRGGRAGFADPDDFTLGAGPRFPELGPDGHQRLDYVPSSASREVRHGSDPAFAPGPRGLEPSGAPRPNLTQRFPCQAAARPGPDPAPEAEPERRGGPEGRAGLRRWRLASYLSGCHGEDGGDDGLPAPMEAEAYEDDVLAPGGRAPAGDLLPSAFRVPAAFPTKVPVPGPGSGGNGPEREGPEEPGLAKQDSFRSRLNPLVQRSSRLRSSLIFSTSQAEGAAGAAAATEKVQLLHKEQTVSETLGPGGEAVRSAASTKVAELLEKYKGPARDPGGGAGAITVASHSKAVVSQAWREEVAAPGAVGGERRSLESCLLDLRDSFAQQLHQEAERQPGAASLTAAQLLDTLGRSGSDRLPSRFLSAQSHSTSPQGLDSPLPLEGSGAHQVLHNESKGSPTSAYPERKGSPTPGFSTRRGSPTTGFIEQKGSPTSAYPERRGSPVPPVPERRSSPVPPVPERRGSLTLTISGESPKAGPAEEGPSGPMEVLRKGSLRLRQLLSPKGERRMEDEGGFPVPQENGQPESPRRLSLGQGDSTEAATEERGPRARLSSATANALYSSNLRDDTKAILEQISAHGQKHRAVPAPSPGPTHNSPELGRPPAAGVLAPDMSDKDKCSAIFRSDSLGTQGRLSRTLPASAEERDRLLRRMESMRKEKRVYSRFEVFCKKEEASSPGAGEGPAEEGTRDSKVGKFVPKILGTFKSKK
UniProt Q5W0V3: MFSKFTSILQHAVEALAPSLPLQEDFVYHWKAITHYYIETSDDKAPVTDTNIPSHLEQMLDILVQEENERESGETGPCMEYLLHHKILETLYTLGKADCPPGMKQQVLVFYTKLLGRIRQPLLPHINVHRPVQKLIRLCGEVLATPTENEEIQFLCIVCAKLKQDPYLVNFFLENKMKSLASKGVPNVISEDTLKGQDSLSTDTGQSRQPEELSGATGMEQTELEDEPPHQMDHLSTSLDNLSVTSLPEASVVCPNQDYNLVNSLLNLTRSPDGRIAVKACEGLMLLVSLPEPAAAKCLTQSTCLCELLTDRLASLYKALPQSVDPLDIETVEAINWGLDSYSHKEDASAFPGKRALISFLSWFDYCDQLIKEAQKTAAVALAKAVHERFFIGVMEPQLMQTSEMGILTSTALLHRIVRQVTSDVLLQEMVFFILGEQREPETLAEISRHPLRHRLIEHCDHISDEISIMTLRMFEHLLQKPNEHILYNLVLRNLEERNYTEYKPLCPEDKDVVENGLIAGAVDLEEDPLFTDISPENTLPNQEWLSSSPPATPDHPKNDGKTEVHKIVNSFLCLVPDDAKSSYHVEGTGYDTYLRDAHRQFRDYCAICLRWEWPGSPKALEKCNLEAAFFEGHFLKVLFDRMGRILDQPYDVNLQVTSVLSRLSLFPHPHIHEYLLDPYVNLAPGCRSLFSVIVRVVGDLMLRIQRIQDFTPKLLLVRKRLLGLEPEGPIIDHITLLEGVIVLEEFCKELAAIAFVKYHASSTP
UniProt Q8WVX9: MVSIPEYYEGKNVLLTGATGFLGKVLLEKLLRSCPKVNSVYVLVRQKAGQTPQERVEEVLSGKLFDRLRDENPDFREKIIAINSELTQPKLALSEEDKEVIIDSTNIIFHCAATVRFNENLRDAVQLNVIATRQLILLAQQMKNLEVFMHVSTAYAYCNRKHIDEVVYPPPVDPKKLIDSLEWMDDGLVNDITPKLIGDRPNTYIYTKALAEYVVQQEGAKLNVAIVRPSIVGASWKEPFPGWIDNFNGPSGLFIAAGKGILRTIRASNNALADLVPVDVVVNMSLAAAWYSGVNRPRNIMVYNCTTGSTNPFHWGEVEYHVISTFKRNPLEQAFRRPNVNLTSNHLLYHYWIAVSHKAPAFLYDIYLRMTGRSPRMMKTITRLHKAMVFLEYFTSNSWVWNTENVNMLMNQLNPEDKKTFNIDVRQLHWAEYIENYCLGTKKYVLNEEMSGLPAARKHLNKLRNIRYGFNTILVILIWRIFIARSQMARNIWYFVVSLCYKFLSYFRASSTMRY
UniProt Q86UX7, whole entry, looked up: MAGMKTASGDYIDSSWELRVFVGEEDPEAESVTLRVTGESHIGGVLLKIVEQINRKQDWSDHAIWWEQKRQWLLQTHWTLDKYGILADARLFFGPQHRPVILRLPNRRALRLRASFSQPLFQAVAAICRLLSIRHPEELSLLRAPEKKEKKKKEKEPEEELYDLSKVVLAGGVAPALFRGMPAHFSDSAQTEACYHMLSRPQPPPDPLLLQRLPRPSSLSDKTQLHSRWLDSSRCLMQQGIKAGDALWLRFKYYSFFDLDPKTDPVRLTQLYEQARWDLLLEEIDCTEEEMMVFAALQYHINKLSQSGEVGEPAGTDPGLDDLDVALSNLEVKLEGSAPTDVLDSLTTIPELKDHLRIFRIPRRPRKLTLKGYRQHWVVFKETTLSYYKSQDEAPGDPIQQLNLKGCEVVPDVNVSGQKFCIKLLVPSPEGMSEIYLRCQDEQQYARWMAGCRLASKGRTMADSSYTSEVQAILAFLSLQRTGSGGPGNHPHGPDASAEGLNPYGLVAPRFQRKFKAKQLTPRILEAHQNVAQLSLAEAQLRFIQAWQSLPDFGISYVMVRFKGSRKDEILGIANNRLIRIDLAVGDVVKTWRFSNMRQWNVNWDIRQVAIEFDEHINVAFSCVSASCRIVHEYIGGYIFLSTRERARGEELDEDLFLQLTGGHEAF

Target	probe-labelled cysteine peptide fold change
FBXL19_Q6PCT2_644_LTDHCLPLFR (UniProt Q6PCT2)	-0.171
FCGRT_P55899_275_SGDEHHYCCIVQHAGLAQPLR (UniProt P55899)	0.0281
FBXL20_Q96IG2_272_LQSLCASGCSNITDAILNALGQNCPR (UniProt Q96IG2)	-0.0328
FBRS_Q9HAH7_87_WCAMHVR (UniProt Q9HAH7)	-0.406
FASTKD1_Q53R41_446_IEAVLPQCDLNNLSSFATSVLR (UniProt Q53R41)	0.0514
FASN_P49327_1558_HAQPTCPGAQLCTVYYASLNFR (UniProt P49327)	-0.309
FBXO7_Q9Y3I1_286_RLQLLPESFICK (UniProt Q9Y3I1)	-0.0958
FBXO30_Q8TB52_90_VAEHLEMCPASVVCCTMEWNR (UniProt Q8TB52)	-0.103
FAM83H_Q6ZRV2_57_FLATEGAPDFLCPEELEHVSR (UniProt Q6ZRV2)	0.0477
FAM20B_O75063_331_SILAPLYQCCIIR (UniProt O75063)	-0.129
FBN2_P35556_1012_WDEDECIHPVPGK (UniProt P35556)	0.246
FBXO4_Q9UKT5_330_HEWQDEFSHIMAMTDPAFGSSGRPLLVLSCISQGDVKR (UniProt Q9UKT5)	0.14
FARP2_O94887_155_LTCADTTAALLTSHLLQSEIGDYDETLDREHLK (UniProt O94887)	0.00853
FAM208B_Q5VWN6_1441_SNQISQCESEDLGITEK (UniProt Q5VWN6)	-0.0905
FDPS_P14324_204_PGVGLDAINDANLLEACIYR (UniProt P14324)	0.0693
FBXO38_Q6PIJ6_39_DYMNQLSHEVLCHIFR (UniProt Q6PIJ6)	0.0115
FBXO22_Q8NEZ5_378_CNEVKDDDLFHSYTTIMALIHLGSSK (UniProt Q8NEZ5)	-0.000319
FAM160B1_Q5W0V3_624_CNLEAAFFEGHFLK (UniProt Q5W0V3)	-0.0187

Target	probe-labelled cysteine peptide fold change
FCF1_Q9Y324_154_CYIVATVDRDLK (UniProt Q9Y324)	0.0906
FANCG_O15287_417_AQDALTLCEELLSR (UniProt O15287)	0.0123
FASN_P49327_223_AFDTAGNGYCR (UniProt P49327)	-0.0189
FBXW5_Q969U6_503_HYNICLAR (UniProt Q969U6)	0.12
FAR1_Q8WVX9_111_EVIIDSTNIIFHCAATVR (UniProt Q8WVX9)	0.346
FAM193B_Q96PV7_766_VGSCAEAGEGSR (UniProt Q96PV7)	0.0282
FGD2_Q7Z6J4_548_GSSATPDQSLMCSFLQLIGDK (UniProt Q7Z6J4)	0.091
FES_P07332_8_GFSSELCSPQGHGVLQQMQEAELR (UniProt P07332)	-0.0348
FAM193A_P78312_106_LGTTTHDTCSEDTYSTLLQR (UniProt P78312)	0.0842
FCHO2_Q0JRZ9_86_LANCHLDLVR (UniProt Q0JRZ9)	0.269
FCHSD2_O94868_260_TELETCQAVQNTFQFLLENSSK (UniProt O94868)	0.0999
FBP1_P09467_93_SSFATCVLVSEEDK (UniProt P09467)	0.31
FCF1_Q9Y324_93_LDLVQSMMDCLYAK (UniProt Q9Y324)	-0.0733
FBXW11_Q9UKB1_484_APASTLCLR (UniProt Q9UKB1)	-0.00112
FGG_P02679_35_DNCCILDER (UniProt P02679)	-0.126
FBXL6_Q8N531_407_ITPAGLQDLPCR (UniProt Q8N531)	-0.174
FERMT3_Q86UX7_128_ASFSQPLFQAVAAICR (UniProt Q86UX7)	-0.0443

Same assay, conditions: 50 µM; THP-1; incubation time: 4 h

Target	probe-labelled cysteine peptide fold change
FBXL19_Q6PCT2_644_LTDHCLPLFR (UniProt Q6PCT2)	-0.251
FCGRT_P55899_275_SGDEHHYCCIVQHAGLAQPLR (UniProt P55899)	0.0157
FBXL20_Q96IG2_272_LQSLCASGCSNITDAILNALGQNCPR (UniProt Q96IG2)	-0.238
FBRS_Q9HAH7_87_WCAMHVR (UniProt Q9HAH7)	0.215
FASTKD1_Q53R41_446_IEAVLPQCDLNNLSSFATSVLR (UniProt Q53R41)	0.22
FASN_P49327_1558_HAQPTCPGAQLCTVYYASLNFR (UniProt P49327)	-0.347
FBXO7_Q9Y3I1_286_RLQLLPESFICK (UniProt Q9Y3I1)	0.191
FBXO30_Q8TB52_90_VAEHLEMCPASVVCCTMEWNR (UniProt Q8TB52)	-0.0583
FAM83H_Q6ZRV2_57_FLATEGAPDFLCPEELEHVSR (UniProt Q6ZRV2)	0.205
FAM20B_O75063_331_SILAPLYQCCIIR (UniProt O75063)	0.232
FBN2_P35556_1012_WDEDECIHPVPGK (UniProt P35556)	0.328
FBXO4_Q9UKT5_330_HEWQDEFSHIMAMTDPAFGSSGRPLLVLSCISQGDVKR (UniProt Q9UKT5)	-0.163
FARP2_O94887_155_LTCADTTAALLTSHLLQSEIGDYDETLDREHLK (UniProt O94887)	-0.316
FAM208B_Q5VWN6_1441_SNQISQCESEDLGITEK (UniProt Q5VWN6)	0.119
FDPS_P14324_204_PGVGLDAINDANLLEACIYR (UniProt P14324)	0.199
FBXO38_Q6PIJ6_39_DYMNQLSHEVLCHIFR (UniProt Q6PIJ6)	-0.111
FBXO22_Q8NEZ5_378_CNEVKDDDLFHSYTTIMALIHLGSSK (UniProt Q8NEZ5)	-0.198
FAM160B1_Q5W0V3_624_CNLEAAFFEGHFLK (UniProt Q5W0V3)	0.238

Target	probe-labelled cysteine peptide fold change
FCF1_Q9Y324_154_CYIVATVDRDLK (UniProt Q9Y324)	-0.345
FANCG_O15287_417_AQDALTLCEELLSR (UniProt O15287)	0.0425
FASN_P49327_223_AFDTAGNGYCR (UniProt P49327)	-0.00636
FBXW5_Q969U6_503_HYNICLAR (UniProt Q969U6)	0.0297
FAR1_Q8WVX9_111_EVIIDSTNIIFHCAATVR (UniProt Q8WVX9)	0.38
FAM193B_Q96PV7_766_VGSCAEAGEGSR (UniProt Q96PV7)	-0.135
FGD2_Q7Z6J4_548_GSSATPDQSLMCSFLQLIGDK (UniProt Q7Z6J4)	0.29
FES_P07332_8_GFSSELCSPQGHGVLQQMQEAELR (UniProt P07332)	0.0198
FAM193A_P78312_106_LGTTTHDTCSEDTYSTLLQR (UniProt P78312)	-0.157
FCHO2_Q0JRZ9_86_LANCHLDLVR (UniProt Q0JRZ9)	0.387
FCHSD2_O94868_260_TELETCQAVQNTFQFLLENSSK (UniProt O94868)	0.276
FBP1_P09467_93_SSFATCVLVSEEDK (UniProt P09467)	0.163
FCF1_Q9Y324_93_LDLVQSMMDCLYAK (UniProt Q9Y324)	-0.0698
FBXW11_Q9UKB1_484_APASTLCLR (UniProt Q9UKB1)	0.297
FGG_P02679_35_DNCCILDER (UniProt P02679)	-0.0155
FBXL6_Q8N531_407_ITPAGLQDLPCR (UniProt Q8N531)	-0.377
FERMT3_Q86UX7_128_ASFSQPLFQAVAAICR (UniProt Q86UX7)	0.023

Source: the supplement of paper PMC12067093, “Discovery and optimisation of a covalent ligand for TRIM25 and its application to targeted protein ubiquitination” (Chemical Science, 2025)
